Measured values taken from patent US7314753.
Results are given in words; binding and its absence hold for the method and conditions named. Binding seen in cells or lysates may run through a third protein. Some entries that bind do so weakly or less than the wild type. Where a sequence is shown, tags or fusion partners need not be part of it.

Protein sequences, listed by entry. Tags and fused reporters are not part of them.
UniProt P05804: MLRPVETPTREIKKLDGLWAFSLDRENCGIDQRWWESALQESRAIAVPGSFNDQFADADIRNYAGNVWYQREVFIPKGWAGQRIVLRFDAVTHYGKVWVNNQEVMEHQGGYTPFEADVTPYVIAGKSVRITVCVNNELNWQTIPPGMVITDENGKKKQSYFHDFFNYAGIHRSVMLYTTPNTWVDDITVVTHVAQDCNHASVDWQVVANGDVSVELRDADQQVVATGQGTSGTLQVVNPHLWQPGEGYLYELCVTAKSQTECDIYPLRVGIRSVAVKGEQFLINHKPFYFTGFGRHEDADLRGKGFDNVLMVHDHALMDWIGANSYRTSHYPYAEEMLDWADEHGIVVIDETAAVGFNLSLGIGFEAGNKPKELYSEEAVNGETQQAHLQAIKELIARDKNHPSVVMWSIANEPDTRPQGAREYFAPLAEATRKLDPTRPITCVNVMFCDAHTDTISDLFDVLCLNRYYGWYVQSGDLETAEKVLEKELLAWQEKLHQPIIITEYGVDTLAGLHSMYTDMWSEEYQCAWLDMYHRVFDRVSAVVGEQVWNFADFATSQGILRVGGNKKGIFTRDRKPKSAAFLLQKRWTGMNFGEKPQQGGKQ

Target: endogenous E. coli β-glucuronidase (E. coli) (UniProt P05804)
Test: co-purification on anti-idiotype column, SDS-PAGE

binding: binds
B1: Fab BW 431/26-E. coli β-glucuronidase fusion protein (protein)
heavy: MEVQLQESGPGLVRPSQTLSLTCTVSGFTISSGYSWHWVRQPPGRGLEWIGYIQYSGITNYNPSLKSRVTMLVDTSKNQFSLRLSSVTAADTAVYYCAREDYDYHWYFDVWGQGSLVTVTVSSASTKGPSVFPLAPCSRSTSGGTAALGCLVKDYFPEPVTVSWNSGALTSGVHTFPAVLQSSGLYSLSSVVTVPSSSLGTQTYTCNVNHKPSNTKVDKRVELGSGSGSMVRPVETPTREIKKLDGLWAFSLDRENCGIDQRWWESALQESRAIAVPGSFNDQFADADIRNYAGNVWYQREVFIPKGWAGQRIVLRFDAVTHYGKVWVNNQEVMEHQGGYTPFEADVTPYVIAGKSVRITVCVNNELNWQTIPPGMVITDENGKKKQSYFHNFFNYAGIHRSVMLYTTPNTWVDDITVVTHVAQDCNHASVDWQVVANGDVSVELRDADQQVVATGQGTSGTLQVVNPHLWQPGEGYLYELCVTAKSQTECDIYPLRVGIRSVAVKGEQFLINHKPFYFTGFGRHEDADLRGKGFDNVLMVHDHALMDWIGANSYRTSHYPYAEEMLDWADEHGIVVIDETAAVGFNLSLGIGFEAGNKPKELYSEEAVNGETQQAHLQAIKELIARDKNHPSVVMWSIANEPDTRPQGAREYFAPLAEATRKLDPTRPITCVNVMFCDAHTDTISDLFDVLCLNRYYGWYVQSGDLETAEKVLEKELLAWQEKLHQPIIITEYGVDTLAGLHSMYTDMWSEEYQCAWLDMYHRVFDRVSAVVGEQVWNFADFATSQGILRVGGNKKGIFTRDRKPKSAAFLLQKRWTGMNFGEKPQQGGKQ
light: MDIQMTQSPSSLSASVGDRVTITCSTSSSVSYMHWYQQKPGKAPKLLIYSTSNLASGVPSRFSGSGSGTDFTFTISSLQPEDIATYYCHQWSSYPTFGQGTKVEIKRTVAAPSVFIFPPSDEQLKSGTASVVCLLNNFYPREAKVQWKVDNALQSGNSQESVTEQDSKDSTYSLSSTLTLSKADYEKHKVYACEVTHQGLSSPVTKSFNRGEC
